Data as given in article doi:10.1101/2022.06.06.495033.
These are yes or no findings as the source states them, for the method shown. Binding seen in cells or lysates may run through a third protein. Some results given as binding are weak or reduced against the parent protein; the word gives no strength. Sequences can lack the tags named with a protein.

Assays:
[1] = target: T1, AtEDEM2/MNS4, fusion protein from the pVYCE vector (Arabidopsis) (UniProt Q9FG93); experiment: co-IP
T1 sequence: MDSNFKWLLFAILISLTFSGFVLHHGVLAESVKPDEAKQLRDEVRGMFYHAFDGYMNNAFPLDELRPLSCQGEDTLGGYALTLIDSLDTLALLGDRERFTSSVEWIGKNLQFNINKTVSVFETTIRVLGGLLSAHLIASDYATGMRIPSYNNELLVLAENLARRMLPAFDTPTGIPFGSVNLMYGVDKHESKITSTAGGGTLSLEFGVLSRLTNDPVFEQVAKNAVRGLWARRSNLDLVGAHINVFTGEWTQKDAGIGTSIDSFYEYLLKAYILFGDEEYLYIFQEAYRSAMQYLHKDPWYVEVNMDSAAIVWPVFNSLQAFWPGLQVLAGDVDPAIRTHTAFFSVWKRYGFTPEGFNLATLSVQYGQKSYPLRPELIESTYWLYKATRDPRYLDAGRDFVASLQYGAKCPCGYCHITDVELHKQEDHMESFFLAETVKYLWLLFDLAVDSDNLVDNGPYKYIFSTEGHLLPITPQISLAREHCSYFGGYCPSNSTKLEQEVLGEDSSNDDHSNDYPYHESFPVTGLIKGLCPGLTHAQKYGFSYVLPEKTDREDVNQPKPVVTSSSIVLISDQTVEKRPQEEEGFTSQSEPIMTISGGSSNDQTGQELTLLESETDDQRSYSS

[2] = target: T1, AtEDEM2/MNS4, fusion protein from the pVYCE vector (Arabidopsis); experiment: split reporter

binding [1]: binds
binding [2]: binds
B1: TU…-INDUCED1 (TIN1), fusion protein from the pVYNE vector (protein, UniProt Q84JN2 26-424)
chain: LISSPDANPPYPKAISDLKESIVKGLGFQSEEVKVSGFDIRDALVGHSVSYEFDLEIDNKVLPFKLLEDVNRWEYVDLPIFQVEQPSENGLVPMRNKKTSSDDVLPVLAPFQLSGPMELWIQDANNMRLSLPYDVDAGVLKKVILADGAVVTVKGARSVSLRHPIDLPLPLNQSSNEFASGLLSLAEQLRRASTDQESPVLSLRIVGPTSLASTSQSPDNKLKLKRLAPGLVELSSMSKDKRSLSTIGANAMTTVLTPREFTTMWPITSINGSNANLLGFEKLLTSVLGPKAQEKGSFKVLKAKVAAQTFMKIGFGIEKKLKEADVEGLSFPEWRTKPETMRMHFEVLAKVDGENVIPENVMRVDPIPLEDTIAQNVITGNVTMSKLPIIESPPSPFTL
